Measured values taken from article PMC1561584.
Results are given in words; binding and its absence hold for the method and conditions named. Some entries that bind do so weakly or less than the wild type.

Sequences of proteins named here, by UniProt entry; tags and fusion partners are left off.
UniProt Q10658: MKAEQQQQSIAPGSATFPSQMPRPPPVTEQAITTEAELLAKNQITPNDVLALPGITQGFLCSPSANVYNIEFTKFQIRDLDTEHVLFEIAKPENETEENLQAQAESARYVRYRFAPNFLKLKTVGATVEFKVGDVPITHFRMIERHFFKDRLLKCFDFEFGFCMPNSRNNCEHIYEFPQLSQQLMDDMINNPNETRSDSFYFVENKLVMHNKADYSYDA

Target: LexA-UNC-119 (C. elegans) (UniProt Q10658)
Test: two-hybrid; LexA baits and GAD preys in strain L40; ONPG liquid β-galactosidase assays and auxotrophic (-His) growth assays

B1: GAD-ARL-3 (full length) (protein, UniProt O45379 1-184)
chain: MGLIDVLKSFKSPSGREIRILLLGLDNAGKTTILKQLSSEDVQHVTPTKGFNVKTVAAMGDIRLNVWDIGGQRSIRPYWSNYYENIDTLIFVIDSNDKKRFDEMNIELGELLDEEKLRKVPVLIFANKQDLVTAASSEEITRKLNLDLLRDRTWHIQACSALKNEGINDGITWVASNLKPASKK
binding: binds
